The assay has as its target Flag-tagged EGFR deletion mutant with the amino terminus (receptor region) deleted. Briefly: co-IP; A549 cells transfected with Flag-EGFR or LAMC2-His vectors (against the endogenous partner), A549 and HEK-293T cells co-transfected with both; lysates (150 mM NaCl, 1% NP-40, 50 mM Tris-HCl pH 8.0, protease inhibitor); primary antibody on Dynal magnetic beads overnight at 4 °C, five washes with PBS, western blot. (A western blot detects proteins with antibodies after separation by electrophoresis.)

Results are given in words; binding and its absence hold for the method and conditions named. Binding seen in cells or lysates may run through a third protein. Where a sequence is shown, tags or fusion partners need not be part of it.

B1: Laminin-5γ-2 (LAMC2), endogenous (protein, UniProt Q13753 22-1193)
chain: TSRREVCDCNGKSRQCIFDRELHRQTGNGFRCLNCNDNTDGIHCEKCKNGFYRHRERDRCLPCNCNSKGSLSARCDNSGRCSCKPGVTGARCDRCLPGFHMLTDAGCTQDQRLLDSKCDCDPAGIAGPCDAGRCVCKPAVTGERCDRCRSGYYNLDGGNPEGCTQCFCYGHSASCRSSAEYSVHKITSTFHQDVDGWKAVQRNGSPAKLQWSQRHQDVFSSAQRLDPVYFVAPAKFLGNQQVSYGQSLSFDYRVDRGGRHPSAHDVILEGAGLRITAPLMPLGKTLPCGLTKTYTFRLNEHPSNNWSPQLSYFEYRRLLRNLTALRIRATYGEYSTGYIDNVTLISARPVSGAPAPWVEQCICPVGYKGQFCQDCASGYKRDSARLGPFGTCIPCNCQGGGACDPDTGDCYSGDENPDIECADCPIGFYNDPHDPRSCKPCPCHNGFSCSVMPETEEVVCNNCPPGVTGARCELCADGYFGDPFGEHGPVRPCQPCQCNNNVDPSASGNCDRLTGRCLKCIHNTAGIYCDQCKAGYFGDPLAPNPADKCRACNCNPMGSEPVGCRSDGTCVCKPGFGGPNCEHGAFSCPACYNQVKIQMDQFMQQLQRMEALISKAQGGDGVVPDTELEGRMQQAEQALQDILRDAQISEGASRSLGLQLAKVRSQENSYQSRLDDLKMTVERVRALGSQYQNRVRDTHRLITQMQLSLAESEASLGNTNIPASDHYVGPNGFKSLAQEATRLAESHVESASNMEQLTRETEDYSKQALSLVRKALHEGVGSGSGSPDGAVVQGLVEKLEKTKSLAQQLTREATQAEIEADRSYQHSLRLLDSVSRLQGVSDQSFQVEEAKRIKQKADSLSSLVTRHMDEFKRTQKNLGNWKEEAQQLLQNGKSGREKSDQLLSRANLAKSRAQEALSMGNATFYEVESILKNLREFDLQVDNRKAEAEEAMKRLSYISQKVSDASDKTQQAERALGSAAADAQRAKNGAGEALEISSEIEQEIGSLNLEANVTADGALAMEKGLASLKSEMREVEGELERKELEFDTNMDAVQMVITEAQKVDTRAKNAGVTIQDTLNTLDGLLHLMDQPLSVDEEGLVLLEQKLSRAKTQINSQLRPMMSELEERARQQRGHLHLLETSIDGILADVKNLENIRDNLPPGCYNTQALEQQ
With B1, the binding result is “no binding”.

B2: His-tagged LAMC2 (WT) (protein, UniProt Q13753 22-1193)
chain: B1 chain
As for B2, the binding result was “no binding”.
